In paper PMC3765826 one finds binding data, which are given here for five molecules.

The target in test [1] is T1, OsMPK3 (rice (Oryza sativa)) (UniProt Q10N20).
T1 sequence: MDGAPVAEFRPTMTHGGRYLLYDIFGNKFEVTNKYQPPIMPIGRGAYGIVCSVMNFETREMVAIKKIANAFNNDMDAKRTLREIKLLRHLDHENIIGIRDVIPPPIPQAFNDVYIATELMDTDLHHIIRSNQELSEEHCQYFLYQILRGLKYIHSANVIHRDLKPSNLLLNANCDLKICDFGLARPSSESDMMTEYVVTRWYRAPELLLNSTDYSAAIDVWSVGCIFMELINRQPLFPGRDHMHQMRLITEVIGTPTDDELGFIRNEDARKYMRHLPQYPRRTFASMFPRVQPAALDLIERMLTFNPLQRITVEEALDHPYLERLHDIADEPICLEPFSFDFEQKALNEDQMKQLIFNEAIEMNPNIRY
The test can be described thus: two-hybrid; one to one, pGADT7 and pGBKT7 constructs co-transformed in yeast AH109; selected on DDO, interaction checked by growth on QDO (SD-trp-leu-ade-his) at 30°C.

Test [2] deals with OsMPK20-4 (rice (Oryza sativa)). In words: two-hybrid; lacZ reporter: β-galactosidase activity of liquid cultures of AH109 with ONPG as substrate, absorbance at 420 nm.
Test [3] has the same target. The test can be described thus: two-hybrid; one to one, pGADT7 and pGBKT7 constructs co-transformed in yeast AH109; selected on DDO, interaction checked by growth on QDO (SD-trp-leu-ade-his) at 30°C.
The target of test [4] is OsMPK20-4 tagged with CFP (rice (Oryza sativa)). In words: FRET or BRET; FRET acceptor bleaching (FRET-AB), CFP and YFP fusions in transiently transformed tobacco leaves, confocal microscope (TCS SP5; Leica). In general terms: Bioluminescence resonance energy transfer reports proximity on the nanometre scale.
Test [5] deals with OsMPK20-4-HA (rice (Oryza sativa)). In words: co-IP; proteins from co-infiltrated Nicotiana tabacum leaves (48 h); IP with anti-HA antibody and Protein A Sepharose at 4°C, immunoblot with anti-c-Myc. On the technique in general: Immunoblotting shows a protein as a band on a membrane.

No constants are given. Whether binding was seen depends on the method and setting. Binding calls can cover weak binding; strength is not graded here. For part of these data: In cells and extracts the contact can be indirect. For part of these data: Sequences can lack the tags named with a protein.

On to OsMPK20-2 (rice (Oryza sativa)), for which, in test [1], the binding result is “no binding”.
Consider OsMPK20-4 (rice (Oryza sativa)), for which the binding result in test [1] is “binds”.

B1: OsMPK3 (protein, UniProt Q10N20 1-369)
chain: T1 sequence
With B1, the binding result in test [2] and in test [3] was “binds” throughout.

B2: OsMPK3 tagged with YFP (protein, UniProt Q10N20 1-369)
chain: T1 sequence
B2: in test [4], the binding entry is “binds”.

B3: OsMPK3-MYC (protein, UniProt Q10N20 1-369)
chain: T1 sequence
Regarding B3, in test [5], the binding result was “binds”.
